# Microarray screen: hit calls

Data from the ROBIN nucleic acid binder screens, doi:10.1002/anie.202211358.

Oligonucleotides screened, 5′ to 3′:
SAM-II: SAM-II riboswitch RNA pseudoknot, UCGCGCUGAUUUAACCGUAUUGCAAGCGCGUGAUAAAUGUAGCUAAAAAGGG. About 200 hits among about 21,000 compounds.
PreQ1: PreQ1 riboswitch RNA pseudoknot, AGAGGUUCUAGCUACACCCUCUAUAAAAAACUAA. From B. subtilis. About 170 hits among about 24,000 compounds.
TPP: TPP riboswitch RNA three-way junction, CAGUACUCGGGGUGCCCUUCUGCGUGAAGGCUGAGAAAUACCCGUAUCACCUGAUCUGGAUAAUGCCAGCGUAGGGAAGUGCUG. About 160 hits among about 24,000 compounds.

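The test is a small-molecule microarray: each compound is printed twice on a reactive slide, and binding shows as fluorescence of the labelled oligonucleotide after washing. For the PreQ1, TPP and SAM-II riboswitches the laboratory earlier reported (doi:10.1038/s41467-019-09493-3) 1 µM RNA, 2 h, and a rule that included a mean Z-score above 3 (spot signal-to-noise against the whole library), a score well above that on a control array, and duplicate spots agreeing (coefficient of variation under 100). The data file gives only the calls; its cut-offs may differ, and compounds hitting several targets are kept. A missing hit is not proof of no binding, and a hit is not a measured affinity.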
“hit” means called a hit, “none” means screened and not called a hit.
This is an unselected part of the compounds tested.
A target missing from an entry has no call listed here.
A dash means that no call is listed here.

| compound | SAM-II | PreQ1 | TPP |
|---|---|---|---|
| `Nc1c(-c2ccncc2)sc2nc(-c3cccnc3)cc(C(F)(F)F)c12` | none | none | none |
| `COc1cccc(Nc2cc(C)nc3c(C)cc(C)cc23)c1` | none | none | none |
| `CC(C)N1CC(=Cc2ccsc2)C2=C(C1)C(c1ccsc1)C(C#N)=C(N)O2` (centres undefined) | none | none | none |
| `OC(Cn1cccn1)c1ccccc1` (centres undefined) | none | none | none |
| `Cc1cccc(C)c1NC(C)C(=O)N1CCC(NS(C)(=O)=O)CC1` (centres undefined) | none | none | none |
| `Cc1ccc2nc(-c3ccco3)c(Nc3ccc4c(c3)OCCO4)n2c1` | none | none | none |
| `C=CCNc1oc(-c2ccc(S(=O)(=O)N3CCCC3)cc2)nc1C#N` | - | none | none |
| `Cc1ccc(Nc2nc(C)cc(N3CCN(S(=O)(=O)c4ccc(C)cc4)CC3)n2)cc1` | - | none | none |
| `CCN1CC(c2ccccc2)CC2(CCN(CCOCCO)CC2)C1` (centres undefined) | none | none | none |
| `Cc1n[nH]c2c1C1(C(=O)Nc3ccccc31)C(C#N)=C(N)O2` (centres undefined) | none | none | none |
| `O=C(CC1C(=O)NCCN1Cc1ccccc1F)NCCNc1cccnc1` (centres undefined) | none | none | none |
| `COc1ccc2c(c1)C13CCN(C)C(C2)C1CCC1(C3)OCCO1` (centres undefined) | none | none | none |
| `O=C(O)c1ccc(Nc2c(-c3cccc(Br)c3)nc3cnccn23)cc1` | - | none | none |
| `CCOc1ccc(CNc2ncc(-c3ccc(Br)cc3)n2C)cc1` | none | none | none |
| `Cc1ccc(CN2CCC(CNC(=O)c3cccc(N)c3)C2)cc1C` (centres undefined) | none | none | none |
| `Nc1nnc(SCC(=O)n2c3ccccc3c3ccccc32)s1` | none | none | none |
| `Cc1noc(C)c1CCCNC(=O)c1cn(CCN)nn1` | none | none | none |
| `C=CCNc1ccccc1C(=O)NCc1ccccc1CN(C)C` | none | none | none |
| `Cc1ccc(OCC(O)Cn2c(C3CC(=O)N(c4ccccc4F)C3)nc3ccccc32)cc1` (centres undefined) | - | none | none |
| `CCCn1c(NCc2cccc(C)c2)nc2cc(C(=O)N3CC(O)C3)ccc21` | none | none | none |
| `CC(C)c1cc(C(=O)N[C@H]2Cc3ccccc3[C@@H]2N)no1` | none | none | none |
| `Cc1cc(C2CCC2)nc(NCCCCCO)n1` | none | none | none |
| `COc1ccc(Br)cc1CNCc1cccnc1` | none | none | none |
| `COc1ccc(CNCCCn2ccnc2)cc1OC` | none | none | none |
| `O=C(Nc1ccc(Nc2ccccc2)cc1)Nc1ccccc1Cl` | none | none | none |
| `CCc1nc2nc(C)cc(Nc3ccc(F)cc3)n2n1` | none | none | none |
| `COCCCNc1cc(C(C)C)nc2nc(-c3cccnc3)nn12` | - | none | none |
| `CC(O)CCC(=O)NCCc1nc2ccccc2n1Cc1cccc(Cl)c1` (centres undefined) | - | none | none |
| `CCC(C)Nc1cc(C)nc2c(-c3ccccc3)c(C(F)(F)F)nn12` (centres undefined) | - | none | none |
| `Cc1ccc(Nc2cc(-c3cccc(N4C(=O)c5ccccc5C4=O)c3)ncn2)cc1NS(C)(=O)=O` | none | none | none |
| `Nc1ccc(C(O)CN2CCCCCC2)cc1` (centres undefined) | none | none | none |
| `CCCOc1nc2c(c(=O)n(C)c(=O)n2C)n1C` | none | none | none |
| `Cc1ccccc1Nc1c(-c2ccc(N(C)C)cc2)nc2ncccn12` | none | none | none |
| `FC(F)(F)c1cccc(NCc2cn3cccnc3n2)c1` | none | none | none |
| `CSc1nc(C)cc(Nc2ccc(N3CCC(C)CC3)cc2)n1` | - | none | none |
| `CCOc1ccc(Nc2c3ccccc3nc3ccccc23)cc1` | none | none | none |
| `Nc1nnc(CCCNC(=O)C(c2cccnc2)N2CCOCC2)s1` (centres undefined) | none | none | none |
| `CC(=O)c1cccc(Nc2nc3ccccc3c3nncn23)c1` | none | none | none |
| `COc1cc(Cl)c(C)cc1Nc1ncnc2c1nc1n2CCCC1` | - | none | none |
| `CCN(CC)C(=O)[C@@H]1C[C@@H](N)CN1C(=O)C(=O)N1CCc2ccccc21` | none | none | none |
| `Cc1ccc(Cl)cc1N1CCN(CCCNc2nc3ccccc3n3c(C)nnc23)CC1` | - | none | none |
| `OCc1nnn(-c2cccc(C(F)(F)F)c2)c1CO` | none | none | none |
| `Cc1ccc(Nc2c(-c3cccnc3)nc3ccc(C)cn23)cc1` | none | none | none |
| `Cc1ccc(Nc2cc(N3CCN(S(=O)(=O)c4ccc(F)cc4)CC3)nc(C)n2)cc1` | - | none | none |
| `CCN(Cc1nc(C)no1)C(=O)c1ccc(CNc2ccc(C)cc2)cc1` | none | none | none |
| `CC1=C(c2ccc(C)cc2)S(=O)(=O)N=C1Nc1cc(F)ccc1F` | - | none | none |

The last 3 entries again:

* Cc1ccc(Nc2cc(N3CCN(S(=O)(=O)c4ccc(F)cc4)CC3)nc(C)n2)cc1 : PreQ1: none; TPP: none
* CCN(Cc1nc(C)no1)C(=O)c1ccc(CNc2ccc(C)cc2)cc1 : SAM-II: none; PreQ1: none; TPP: none
* CC1=C(c2ccc(C)cc2)S(=O)(=O)N=C1Nc1cc(F)ccc1F : PreQ1: none; TPP: none